Source: US8535680B2, “Anti-LPS factor from Parietaria judaica and methods of use thereof” (Consiglio Nazionale Delle Ricerche, priority 2008, dated 2013)
Entries after “also recorded” stand apart in the source; their conditions may differ. Part of at least one peptide drawing is inferred or uncertain, most often the ends. No end group written: not given here.

How the values were obtained:
[1] = tested on: PBMC of non-allergic subjects; experiment: ELISA of IFN-γ release inhibition, PBMC stimulated with LPS pre-incubated with peptide; format: cell-based, human; settings: increasing concentrations of peptide; two subjects; FIG. 4
[2] = tested on: PBMC of non-allergic subjects; experiment: ELISA of IFN-γ release from PBMC stimulated with the antigen itself; settings: 1 and 10 μg/ml; healthy subjects n=4; FIG. 8
[3] = tested on: PBMC from Pj allergic patients and non-allergic subjects; experiment: PBMC proliferation (Cell Proliferation ELISA, BrdU); format: cell-based, human; settings: 0.1, 1 and 10 μg/ml, 5 days; 3 Pj allergic patients and 3 non-allergic subjects; FIG. 7
Protocol: FIG. 7: Analysis of PBMC proliferation of 3 Pj allergic patients and 3 healthy subjects. Stimulation was conducted by adding to the culture medium rParj1 and Par37 synthetic peptide at a concentration of 0.1, 1 and 10 μg/ml. Numerical values on the y-axis indicate proliferation indexes with respect to the unstimulated sample. White histograms identify PBMC stimulated by Parj1, black histograms identify PBMC stimulated by Par37 peptide. Horizontal bars indicate significance values (values above the bar indicate a positive stimulation; values below the bar indicate absence of proliferation).
PBMC from Pj allergic patients (n=3) and non-allergic subjects (n=3) were purified by Ficoll gradient and resuspended in complete RPMI (10% AB serum). Cells were stimulated 5 days with 0.1, 1 and 10 μg/ml rParj1 and Par37. For the determination of stimulation indexes, cells were treated according to what described in the Cell Proliferation ELISA kit, BrdU (colorimetric) (Roche).

## LPVSLRHGPVTGPSDPAHKARLERPQIRVPPPAPEKA [Par37]
[1]
  IFN-γ release from PBMC after stimulation with LPS pre-incubated with peptide: dramatic reduction of IFN-γ release; also recorded: reduction of cytokine release
[2]
  IFN-γ release from PBMC induced by the antigen itself: very low cytokine production, equivalent to the (untreated) control sample; also recorded: not capable, on itself, of inducing IFN-γ release
[3]
  cell proliferation (lymphoproliferative activity) of PBMC: no lymphoproliferative activity
